Data as given in PubChem BioAssay AID504764 (Drosophila RNAi Screening Center, 2011).

Purpose: 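Genome-wide screen for regulators of Notch-driven gene expression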 (primary screen)
Cell system: Drosophila Kc167 cells
Knock-down reagent: long dsRNA against Drosophila genes
Duration: about 5 days (4 days dsRNA, then 24 h after transfection)
Treatment: transfection of constitutively active membrane-tethered Notch lacking the extracellular domain, read 24 h later
Measured: 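Light from a Notch-responsive E(spl)m3 luciferase reporter under active Notch, with control-promoter and no-Notch reporter wells to normalise; raw counts from paired wells a and b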
Scale: induced reporter light, run 1, well a and induced reporter light, run 1, well b: higher = more light from the Notch target reporter with active Notch; control promoter light, run 1, well a and control promoter light, run 1, well b: higher = more light from the viral control promoter (cell number, transfection, viability); uninduced reporter light, run 1, well a: higher = more light from the Notch target reporter without active Notch
Hit rule: 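Wells with low control signal or poorly matching duplicates excluded; duplicates averaged; per source plate, z beyond ±2 for induced/control log2 ratio or beyond ±1.8 for induced/uninduced marks a hit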
Calls: active = modifier hit (raised or lowered Notch signal); inactive = not a hit
In all, the deposit lists about 22,000 reagents; shown is a random part of those with a known target gene and a result. Of all reagents, 403 (1.9%) were called active. 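Unnormalised raw counts per well; ratio z-scores behind the hit calls and whether each hit raises or lowers signal are not deposited.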 A plus sign joins genes that one reagent is predicted to hit. Reagent sequences are not shown. Not stated in the record: the amount of reagent.

| target gene | dsRNA | induced reporter light, run 1, well a | induced reporter light, run 1, well b | control promoter light, run 1, well a | control promoter light, run 1, well b | uninduced reporter light, run 1, well a | call |
| --- | --- | --- | --- | --- | --- | --- | --- |
| eEF1gamma (eukaryotic translation elongation factor 1 gamma) | DRSC16659 | 7565 | 5745 | 12940 | 13040 | 585 | inactive |
| CG9920 | DRSC16578 | 2.32e5 | 2.29e5 | 1.78e5 | 2.00e5 | 17242 | inactive |
| CG13280 | DRSC02253 | 1.20e5 | 1.33e5 | 1.41e5 | 1.50e5 | 9730 | inactive |
| arx (asterix) | DRSC10386 | 1.45e5 | 1.14e5 | 69615 | 85915 | 9440 | inactive |
| CG2652 | DRSC18501 | 44250 | 60955 | 71910 | 77510 | 3885 | inactive |
| fz4 (frizzled 4) | DRSC18780 | 1.38e5 | 1.53e5 | 3.04e5 | 2.90e5 | 11045 | inactive |
| CG42284 | DRSC22094 | – | – | – | – | – | inactive |
| Sbp2 (SECIS-binding protein 2) | DRSC10766 | 1.27e5 | 1.13e5 | 76750 | 19740 | 12335 | active |
| grp + CG31782 (retired record) | DRSC03541 | 2.37e5 | 2.42e5 | 2.64e5 | 2.18e5 | 17360 | inactive |
| Tdg (Thymine DNA glycosylase) | DRSC17119 | 69770 | 73970 | 96030 | 1.02e5 | 6120 | inactive |
| Tdg (Thymine DNA glycosylase) | DRSC17169 | 1.30e5 | 1.07e5 | 1.58e5 | 1.34e5 | 8035 | inactive |
| CG34302 | DRSC12751 | 1.51e5 | 1.44e5 | 1.61e5 | 1.42e5 | 11895 | inactive |
| beat-Ib (beaten path Ib) | DRSC03490 | 1.31e5 | 1.36e5 | 1.60e5 | 1.57e5 | 11565 | inactive |
| BubR1 (Bub1-related kinase) | DRSC04838 | 1.14e5 | 98880 | 1.14e5 | 1.21e5 | 9020 | inactive |
| CG2993 | DRSC14284 | 69190 | 52605 | 47400 | 36050 | 3980 | inactive |
| CG2993 | DRSC15457 | 83855 | 1.00e5 | 52320 | 50805 | 6415 | inactive |
| Ugt36A1 (UDP-glycosyltransferase family 36 member A1) | DRSC00748 | 2.61e5 | 1.94e5 | 2.53e5 | 2.12e5 | 14320 | inactive |
| ush (u-shaped) | DRSC00843 | 1.78e5 | 1.50e5 | 1.89e5 | 1.73e5 | 15470 | inactive |
| CG3246 | DRSC00584 | 1.52e5 | 1.10e5 | 1.31e5 | 1.13e5 | 9775 | inactive |
| Cp38 (Chorion protein 38) | DRSC18453 | 1.71e5 | 1.53e5 | 3.13e5 | 2.93e5 | 12140 | inactive |
